From PubChem BioAssay AID296 (DTP/NCI, 2004)
The list does not hold the whole screen: its compounds were picked by chemical class. Not every dose and run of a compound is shown. T/C: endpoint of the treated group in % of that of the vehicle group. Schedules are NCI's codes, read here as Q, the interval in days (D) or hours (H), X, the number of doses. Some T/C values are negative: the treated tumours shrank. Some entries hold several experiments; the values are given in rising order. Some T/C values carry the count of animals alive at the toxicity check; without a count or a note in brackets, all were alive then. Some doses have a count of surviving animals in place of a T/C: the source files T/C as zero there, which appears to mark a toxic dose or a test without result, not a measured value. Counts of survivors are from the toxicity check, whose day is not always given; animals may have died later. Some metal complexes and salts are drawn in pieces, as in the source, so charges may not balance.

Test system: MX-1 breast xenograft, nude mice, tumor weight T/C
Assay: NCI In Vivo Anticancer Drug Screen. Data for tumor model Human Mammary Carcinoma MX-1 Xenograft (intrarenal inoculation) in NU/NU Swiss (nude) mice
Conditions: T/C endpoint: mean tumor weight change, higher T/C = larger tumour; for T/C: evaluated on day 11
Description: The antitumor activity of compounds was measured in mice bearing transplantable tumors. Survival or tumor size were measured and the results are expressed as the measurement made in the treated group (T) divided by the measurement made in the vehicle treated control group (C). The tumor model used in this assay is Human Mammary Carcinoma MX-1 Xenograft (intrarenal inoculation) in NU/NU Swiss (nude) mice

[1] = dose: 300.0 mg/kg/injection, schedule: Q04DX003 (sc), vehicle: saline with Tween-80
[2] = dose: 600.0 mg/kg/injection, schedule: Q04DX003 (sc), vehicle: saline with Tween-80
[3] = dose: 1200.0 mg/kg/injection, schedule: Q04DX003 (sc), vehicle: saline with Tween-80
[4] = dose: 100.0 mg/kg/injection, schedule: Q01DX010 (sc), vehicle: saline with Tween-80
[5] = dose: 300.0 mg/kg/injection, schedule: Q04DX003 (sc), vehicle: Klucel (hydroxypropylcellulose) (HPC)
[6] = dose: 600.0 mg/kg/injection, schedule: Q04DX003 (sc), vehicle: Klucel (hydroxypropylcellulose) (HPC)
[7] = dose: 1200.0 mg/kg/injection, schedule: Q04DX003 (sc), vehicle: Klucel (hydroxypropylcellulose) (HPC)
[8] = dose: 2400.0 mg/kg/injection, schedule: Q04DX003 (sc), vehicle: Klucel (hydroxypropylcellulose) (HPC)
[9] = dose: 200.0 mg/kg/injection, schedule: Q04DX003 (sc), vehicle: suspension in saline
[10] = dose: 400.0 mg/kg/injection, schedule: Q04DX003 (sc), vehicle: suspension in saline
[11] = dose: 800.0 mg/kg/injection, schedule: Q04DX003 (sc), vehicle: suspension in saline

In the case of `CC(=O)OC(SC(OC(C)=O)C(Cl)(Cl)Cl)C(Cl)(Cl)Cl` (stereo not drawn), the T/C (dose: 100.0 mg/kg/injection, schedule: Q01DX010 (sc), vehicle: Klucel (hydroxypropylcellulose) (HPC)) was 119 % of control, the T/C (dose: 200.0 mg/kg/injection, schedule: Q01DX010 (sc), vehicle: Klucel (hydroxypropylcellulose) (HPC)) was 158 % of control and the T/C (dose: 400.0 mg/kg/injection, schedule: Q01DX010 (sc), vehicle: Klucel (hydroxypropylcellulose) (HPC)) was 114 % of control. The T/C (dose: 800.0 mg/kg/injection, schedule: Q01DX010 (sc), vehicle: Klucel (hydroxypropylcellulose) (HPC)) was 115 % of control.

With `NC(=O)c1[nH]cnc1/N=N\N(CCCl)CCCl` the T/C (dose: 75.0 mg/kg/injection, schedule: Q04DX003 (sc), vehicle: saline with Tween-80) was 62 % of control, the T/C (dose: 150.0 mg/kg/injection, schedule: Q04DX003 (sc), vehicle: saline with Tween-80) was 40, 74, 97, 151 % of control [5 of 6 alive on day 11] and the T/C [1] was 1 [5 of 6 alive on day 11], 26, 33, 90 % of control. For the same compound, the T/C [2] was -63 [4 of 6 alive on day 11] and 4 % of control, the survivor count [2] was 2 of 6 on day 11 and 3 of 6 on day 11 and the T/C [3] was -30 and 68 % of control. For the same compound, the survivor count [3] was 0 of 6 on day 11.

For `[Au].[C-]#N.[C-]#N`, the T/C (dose: 5.0 mg/kg/injection, schedule: Q04DX003 (sc), vehicle: saline) was 120 % of control, the T/C (dose: 10.0 mg/kg/injection, schedule: Q04DX003 (sc), vehicle: saline) was 82 % of control and the T/C (dose: 20.0 mg/kg/injection, schedule: Q04DX003 (sc), vehicle: saline) was 61 % of control. For the same compound, the survivor count (dose: 40.0 mg/kg/injection, schedule: Q04DX003 (sc), vehicle: saline) was 0 of 6 on day 11.

In the case of `Nc1cc([As]=O)ccc1O` (stereo not drawn), the T/C (dose: 25.0 mg/kg/injection, schedule: Q01DX010 (sc), vehicle: saline with Tween-80) was 80 and 97 % of control, the T/C (dose: 50.0 mg/kg/injection, schedule: Q01DX010 (sc), vehicle: saline with Tween-80) was 50, 66, 85, 92 % of control and the T/C [4] was 9 [2 of 3 alive on day 11], 28, 47 % of control. For the same compound, the survivor count [4] was 0 of 6 on day 11, the survivor count (dose: 200.0 mg/kg/injection, schedule: Q01DX010 (sc), vehicle: saline with Tween-80) was 0 of 3 on day 11 and 0 of 6 on day 11 and the survivor count (dose: 400.0 mg/kg/injection, schedule: Q01DX010 (sc), vehicle: saline with Tween-80) was 0 of 6 on day 11.

`CCCNC(=O)c1ccc(N(CCCl)CCCl)cc1` was tested, and the T/C [5] was 155 % of control, the T/C [6] was 141 % of control [5 of 6 alive on day 11] and the T/C [7] was 105 % of control. For the same compound, the T/C [8] was 94 % of control.

`ICCN(CCI)c1cccc2ccccc12` was tested, and the T/C (dose: 75.0 mg/kg/injection, schedule: Q04DX003 (sc), vehicle: Klucel (hydroxypropylcellulose) (HPC)) was 27 and 82 % of control, the T/C (dose: 150.0 mg/kg/injection, schedule: Q04DX003 (sc), vehicle: Klucel (hydroxypropylcellulose) (HPC)) was 19 and 32 % of control [5 of 6 alive on day 11] and the T/C [5] was 2 and 29 % of control. The T/C [6] was 23 % of control and the survivor count [6] was 3 of 6 on day 11.

In the case of `ClP1(Cl)=NP(Cl)(Cl)=NP(Cl)(Cl)=NP(Cl)(Cl)=N1`, the T/C [5] was 68 % of control, the T/C [6] was 100 % of control and the T/C [7] was 63 % of control. For the same compound, the T/C [8] was 104 % of control.

`ClC1CSC1` was tested, and the T/C [1] was 14 and 78 % of control, the T/C [2] was 20 % of control and the survivor count [2] was 0 of 6 on day 11. The T/C [3] was 1 % of control, the survivor count [3] was 0 of 6 on day 11 and the survivor count (dose: 2400.0 mg/kg/injection, schedule: Q04DX003 (sc), vehicle: saline with Tween-80) was 0 of 6 on day 11 and 2 of 6 on day 11.

`Cc1ccc(Sc2ccc([N+](=O)[O-])cc2[N+](=O)[O-])c([N+](=O)[O-])c1` was tested, and the T/C (dose: 100.0 mg/kg/injection, schedule: Q04DX003 (sc), vehicle: suspension in saline) was 134 % of control, the T/C [9] was 145 % of control and the T/C [10] was 191 % of control. The T/C [11] was 164 % of control.

`CC1(C)CN1P(=O)(Nc1ncccn1)N1CC1(C)C` (stereo not drawn) was tested, and the T/C [9] was 35 and 40 % of control, the T/C [10] was 4 and 8 % of control and the T/C [11] was -100 [5 of 6 alive on day 11] and -21 % of control [4 of 6 alive on day 11]. For the same compound, the survivor count (dose: 1600.0 mg/kg/injection, schedule: Q04DX003 (sc), vehicle: suspension in saline) was 1 of 6 on day 11 and 2 of 6 on day 11.
